PubChem BioAssay AID1259254 – NCATS | 2017
Purpose: 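Genome-wide screen for genes that prevent DNA re-replication in cancer cells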 (primary screen). Cell system: human HCT116 colorectal cancer cells. Knock-down reagent: single siRNA against human genes. Time to read-out: 3 days. Detection: 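Nuclei stained with Hoechst and imaged; cell-cycle phase assigned by DNA content; G2 share scaled per plate, non-targeting siRNA 0%, GMNN siRNA 100%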. Scale: G2 robust z-score and G2 cells, % of GMNN control: higher = more G2 cells, more excess DNA replication. Hit rule: 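An siRNA counts as active if its G2 robust z-score lies at least 5 MADs above the screen median; here such calls match roughly 38% of GMNN control or more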.
Here is a random part of about 59,000 deposited reagents. Of all reagents, about 1,550 (2.6%) were called active. 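G2 share is only a proxy for re-replication; each gene was hit by three separate siRNAs, and active genes were retested.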 Reagents against one gene are numbered here. Further read-outs or replicates are left out here. No sequences are given here. The record does not give: the amount of reagent.

gene	reagent no.	G2 robust z-score	G2 cells, % of GMNN control	outcome
BFSP2 (beaded filament structural protein 2)	1	0.62	7.33	inactive
BFSP2 (beaded filament structural protein 2)	2	1.7	15	inactive
BFSP2 (beaded filament structural protein 2)	3	1.43	13	inactive
PXDC1 (PX domain containing 1)	1	-0.255	1.17	inactive
PXDC1 (PX domain containing 1)	2	-0.694	-1.92	inactive
PXDC1 (PX domain containing 1)	3	0.996	9.98	inactive
PIH1D2 (PIH1 domain containing 2)	1	0.764	8.35	inactive
PIH1D2 (PIH1 domain containing 2)	2	2.37	19.6	inactive
PIH1D2 (PIH1 domain containing 2)	3	-0.0358	2.72	inactive
PPP1CB (protein phosphatase 1 catalytic subunit beta)	1	3.9	30.4	inactive
PPP1CB (protein phosphatase 1 catalytic subunit beta)	2	1.24	11.7	inactive
PPP1CB (protein phosphatase 1 catalytic subunit beta)	3	3.68	28.8	inactive
SPIN3 (spindlin family member 3)	1	0.748	8.23	inactive
SPIN3 (spindlin family member 3)	2	-0.595	-1.22	inactive
SPIN3 (spindlin family member 3)	3	1.35	12.4	inactive
ARHGAP19 (Rho GTPase activating protein 19)	1	-0.087	2.35	inactive
ARHGAP19 (Rho GTPase activating protein 19)	2	-0.878	-3.21	inactive
ARHGAP19 (Rho GTPase activating protein 19)	3	-0.515	-0.656	inactive
PALB2 (partner and localizer of BRCA2)	1	-0.156	1.87	inactive
PALB2 (partner and localizer of BRCA2)	2	-0.654	-1.63	inactive
PALB2 (partner and localizer of BRCA2)	3	-0.484	-0.439	inactive
FKBP8 (FKBP prolyl isomerase 8)	1	2	17	inactive
FKBP8 (FKBP prolyl isomerase 8)	2	0.347	5.41	inactive
FKBP8 (FKBP prolyl isomerase 8)	3	-0.964	-3.82	inactive

Continued (9 carried over from the part before).
gene	reagent no.	G2 robust z-score	G2 cells, % of GMNN control	outcome
ARHGAP19 (Rho GTPase activating protein 19)	1	-0.087	2.35	inactive
ARHGAP19 (Rho GTPase activating protein 19)	2	-0.878	-3.21	inactive
ARHGAP19 (Rho GTPase activating protein 19)	3	-0.515	-0.656	inactive
PALB2 (partner and localizer of BRCA2)	1	-0.156	1.87	inactive
PALB2 (partner and localizer of BRCA2)	2	-0.654	-1.63	inactive
PALB2 (partner and localizer of BRCA2)	3	-0.484	-0.439	inactive
FKBP8 (FKBP prolyl isomerase 8)	1	2	17	inactive
FKBP8 (FKBP prolyl isomerase 8)	2	0.347	5.41	inactive
FKBP8 (FKBP prolyl isomerase 8)	3	-0.964	-3.82	inactive
ADAMTS5 (ADAM metallopeptidase with thrombospondin type 1 motif 5)	1	6.33	47.5	active
ADAMTS5 (ADAM metallopeptidase with thrombospondin type 1 motif 5)	2	1.66	14.7	inactive
ADAMTS5 (ADAM metallopeptidase with thrombospondin type 1 motif 5)	3	0.188	4.29	inactive
PRSS12 (serine protease 12)	1	-0.885	-3.26	inactive
PRSS12 (serine protease 12)	2	2.26	18.8	inactive
PRSS12 (serine protease 12)	3	-0.682	-1.83	inactive
EPHB2 (EPH receptor B2)	1	4.95	37.8	inactive
EPHB2 (EPH receptor B2)	2	-0.764	-2.41	inactive
EPHB2 (EPH receptor B2)	3	0.632	7.41	inactive
BBS5 (Bardet-Biedl syndrome 5)	1	-0.269	1.07	inactive
BBS5 (Bardet-Biedl syndrome 5)	2	-0.0767	2.43	inactive
BBS5 (Bardet-Biedl syndrome 5)	3	-0.0481	2.63	inactive
HOOK1 (hook microtubule tethering protein 1)	1	-0.748	-2.29	inactive
HOOK1 (hook microtubule tethering protein 1)	2	-0.571	-1.05	inactive
HOOK1 (hook microtubule tethering protein 1)	3	-0.895	-3.33	inactive
SCRIB (scribble planar cell polarity protein)	1	3.36	26.6	inactive
SCRIB (scribble planar cell polarity protein)	2	0.0653	3.43	inactive
SCRIB (scribble planar cell polarity protein)	3	-0.401	0.144	inactive
MS4A7 (membrane spanning 4-domains A7)	1	-1.26	-5.91	inactive
MS4A7 (membrane spanning 4-domains A7)	2	2.96	23.8	inactive
MS4A7 (membrane spanning 4-domains A7)	3	5.12	39	active
OR11L1 (olfactory receptor family 11 subfamily L member 1)	1	-0.786	-2.57	inactive
OR11L1 (olfactory receptor family 11 subfamily L member 1)	2	-0.893	-3.32	inactive
OR11L1 (olfactory receptor family 11 subfamily L member 1)	3	-0.645	-1.57	inactive
NLRC4 (NLR family CARD domain containing 4)	1	-0.498	-0.539	inactive
NLRC4 (NLR family CARD domain containing 4)	2	-0.515	-0.654	inactive
NLRC4 (NLR family CARD domain containing 4)	3	0.555	6.87	inactive
TAS1R2 (taste 1 receptor member 2)	1	1.75	15.3	inactive
TAS1R2 (taste 1 receptor member 2)	2	-0.741	-2.25	inactive
TAS1R2 (taste 1 receptor member 2)	3	-0.475	-0.377	inactive
LINC00898 (long independently transcribed non-coding RNA 898)	1	-0.0788	2.41	inactive
LINC00898 (long independently transcribed non-coding RNA 898)	2	-0.839	-2.93	inactive
LINC00898 (long independently transcribed non-coding RNA 898)	3	0.946	9.63	inactive
MCF2 (MCF.2 cell line derived transforming sequence)	1	-0.0811	2.4	inactive
MCF2 (MCF.2 cell line derived transforming sequence)	2	-1.29	-6.12	inactive
MCF2 (MCF.2 cell line derived transforming sequence)	3	-0.395	0.19	inactive
BMS1P11 (BMS1 pseudogene 11)	1	0.208	4.43	inactive
BMS1P11 (BMS1 pseudogene 11)	2	-0.901	-3.37	inactive
BMS1P11 (BMS1 pseudogene 11)	3	-0.881	-3.23	inactive
APOL6 (apolipoprotein L6)	1	-0.883	-3.24	inactive
APOL6 (apolipoprotein L6)	2	-0.135	2.02	inactive
APOL6 (apolipoprotein L6)	3	-0.0853	2.37	inactive
SYS1 (SYS1 golgi trafficking protein)	1	0.551	6.84	inactive
SYS1 (SYS1 golgi trafficking protein)	2	-0.269	1.08	inactive
SYS1 (SYS1 golgi trafficking protein)	3	-0.872	-3.16	inactive
